According to PubChem BioAssay AID1439 (NMMLSC, 2008):
About 770 (0.35%) of roughly 220,000 compounds were called active. Inconclusive results, whose numbers are uncertain, are shown with a selection of clear calls. Rule as the data show it: active = binding response below about 49% or above about 150%; inconclusive = no clear call, values can overlap the other calls; inactive = in between.

Chains of the proteins cited; added tags and fusions are not shown.
UniProt P09471, whole entry, looked up: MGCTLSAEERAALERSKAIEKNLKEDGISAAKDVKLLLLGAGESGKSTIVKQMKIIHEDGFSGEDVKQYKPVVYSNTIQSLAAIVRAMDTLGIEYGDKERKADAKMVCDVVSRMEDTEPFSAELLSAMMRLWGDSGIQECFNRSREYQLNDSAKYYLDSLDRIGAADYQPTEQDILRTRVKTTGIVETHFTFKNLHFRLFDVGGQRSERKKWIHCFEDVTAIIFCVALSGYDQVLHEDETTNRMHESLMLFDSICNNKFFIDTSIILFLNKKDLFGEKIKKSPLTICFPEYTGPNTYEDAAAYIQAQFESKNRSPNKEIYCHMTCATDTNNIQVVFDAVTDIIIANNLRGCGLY

target: Guanine nucleotide-binding protein G(o) subunit alpha (Homo sapiens) (UniProt P09471); assay: RGS7-Galphao binding modulators, primary screen, biochemical, multiplexed bead flow cytometry (AID 1439); conditions: at 10 µM, actives lie on both sides;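 also: fluorescent Galphao held in activated GDP-AlF4 state binding bead-coupled RGS7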

| SMILES | binding response (% of control) |
| --- | --- |
| CCOc1nc(SCCOc2ccc(C)cc2)nc(N(C)C)n1 | inactive: 121% |
| COc1ccc(CC(=O)NNC2=Nc3cccc4cccc2c34)cc1OC | inconclusive: 107% |
| Cc1cccc2cc(C3CC(c4cccs4)=NN3S(C)(=O)=O)c(Cl)nc12 (stereo not given) | inconclusive: 20.9% |
| CC(C)(C)OC(=O)NCCc1nnc(SCc2ccccc2)o1 | inconclusive: 498% |
| O=C(OCc1cc2ccccc2[nH]c1=O)c1ccc([N+](=O)[O-])cc1 | inconclusive: 94.6% |
| COc1ccc(NC(=O)CC2C(=O)N(C)C(=S)N2CCc2ccccc2F)cc1 (stereo not given) | inconclusive: 107% |
| CCCCCCCCSc1nnc(/N=C/N(C)C)s1 | inconclusive: 84.7% |
| CC1=NN2C(=N)/C(=C\c3cc(C)n(-c4ccc(C)cc4)c3C)C(=O)N=C2S1 | inconclusive: 94.1% |
| O=C(O)CCC(=O)N1CCC(n2nnc3cc(C(F)(F)F)ccc32)CC1 | inconclusive: 98.8% |
| CCN(CC)CCN1C(=O)C(O)=C(C(C)=O)C1c1ccccc1[N+](=O)[O-] (stereo not given) | inconclusive: 125% |
| CCc1nc2cc([N+](=O)[O-])c([N+](=O)[O-])cc2[nH]1 | inactive: 102% |
| CC(C)OC(=O)c1ccc(COC(=O)c2cnccn2)cc1 | inconclusive: 126% |
| CCC1CSC(Nc2ccc(C(=O)/C=C/c3cccc(C)c3)cc2)=N1 (stereo not given) | inactive: 104% |
| CN1C(=O)c2ccccc2C(C(=O)NCCCN2CCCC2=O)C1c1c[nH]c2ccccc12 (stereo not given) | inactive: 103% |
| O=C(O)c1cccnc1Sc1ncnc2sc3c(c12)CCC3 | inconclusive: 97.9% |
| COc1ccc(Nc2nc(N)c([N+](=O)[O-])c(N3CCOCC3)n2)cc1 | inconclusive: 126% |
| Cc1cccc(NC(=O)CN(C)S(=O)(=O)c2cccc3cccnc23)c1C | inconclusive: 87.3% |
| NS(=O)(=O)c1ccc(NC(=S)NNC(=O)c2cccs2)cc1 | inactive: 109% |
| Cc1ccc(S(=O)(=O)NC(C)(C)CN2CCC(Cc3ccccc3)CC2)cc1 | inconclusive: 90.6% |
| COC(=O)c1cc(C)cc(=O)o1 | inconclusive: 122% |
| CCN1CCN(CCCN(Cc2ccco2)C(=S)Nc2cccc(Cl)c2C)CC1 | inconclusive: 90% |
| O=C(Nc1ccnc(-c2cccnc2)n1)c1cccs1 | inactive: 99.5% |
| NNC(=O)c1[nH]c2ccc(Cl)cc2c1-c1ccccc1 | inconclusive: 351% |

An excerpt from above in order of number of heavy atoms, largest number first:

| SMILES | binding response (% of control) |
| --- | --- |
| O=C(O)CCC(=O)N1CCC(n2nnc3cc(C(F)(F)F)ccc32)CC1 | inconclusive: 98.8% |
| O=C(OCc1cc2ccccc2[nH]c1=O)c1ccc([N+](=O)[O-])cc1 | inconclusive: 94.6% |
| CC(C)OC(=O)c1ccc(COC(=O)c2cnccn2)cc1 | inconclusive: 126% |
| CCc1nc2cc([N+](=O)[O-])c([N+](=O)[O-])cc2[nH]1 | inactive: 102% |

(listing goes on)

| SMILES | binding response (% of control) |
| --- | --- |
| CN(C)CCCn1c(N)c(C#N)c2nc3ccccc3nc21 | inconclusive: 133% |
| CC(=O)NC(=S)Nc1ccc(N2CCOCC2)c(S(=O)(=O)Nc2cc(Cl)ccc2Cl)c1 | inconclusive: 100% |
| CC(=O)Nc1ccccc1NC(=O)c1ccc(C)cc1C | inconclusive: 115% |
| Cc1occc1C(=O)NNC(=S)NCc1ccccc1 | inactive: 103% |
| Nc1nnnn1/N=C/c1cc([N+](=O)[O-])ccc1O | inconclusive: 98.2% |
| CC(C)(C)c1ccc(C(=O)N2CCCC2)s1 | inconclusive: 119% |
| CN1CCCN(C(=O)C2CCC(C(=O)N3CCCN(C)CC3)CC2)CC1 (stereo not given) | inconclusive: 103% |
| Cc1c(NC(=O)c2ccc(S(=O)(=O)N3CCOCC3)cc2)c(=O)n(-c2ccccc2)n1C | inconclusive: 135% |
| Cc1nnc(SCC(=O)NC23CC4CC(CC(C4)C2)C3)n(N)c1=O | inconclusive: 104% |
| COc1cc2c(cc1OC)CN(C(=O)CCCOc1ccc(Cl)cc1Cl)CC2 | inactive: 95.6% |
| Cc1onc(-c2ccccc2Cl)c1C(=O)Nc1ncn[nH]1 | inactive: 86.7% |
| CCN1CCN(c2cc(C)c3cc(NC(=S)N4CCN(c5ccc(F)cc5)CC4)ccc3n2)CC1 | inconclusive: 88.2% |
| COc1ccccc1NC(=O)c1ccc(NC(=O)Cc2n[nH]c(=O)c3ccccc23)cc1 | inconclusive: 206% |
| COc1ccc(-n2c(C)cc(C(=O)CSc3nn4c(=O)c(C(C)(C)C)nnc4s3)c2C)cc1 | inactive: 113% |
| O=[N+]([O-])c1cccc(/C=N/n2c(COc3ccccc3)n[nH]c2=S)c1 | inactive: 117% |
| COc1cc(/C=C/C(=O)OCC(=O)c2c(N)n(C)c(=O)n(C)c2=O)ccc1OCC#N | inconclusive: 103% |
| CC1Cc2ccccc2N1C(=O)Cc1cccs1 (stereo not given) | inactive: 102% |
| CCn1cc(C(=O)NCc2cccs2)c(=O)c2cc(S(=O)(=O)N3CCOCC3)ccc21 | inconclusive: -27.9% |
| O=C(CNCCN1CCOCC1)Nc1ccccc1Sc1ccccc1 | inactive: 120% |
| Cc1ccccc1Cn1cc(NC(=O)c2cc(C3CC3)on2)cn1 | inconclusive: 94% |
| NC(=O)CSc1nnc(Cn2c(=O)sc3ccccc32)n1-c1cccc(Cl)c1 | inactive: 96.9% |
| Cn1cc(C(=O)c2cccc(Cl)c2)cc1C#N | inconclusive: 94.9% |
